Measured data: PubChem BioAssay AID743121 (NCATS, 2013)
Assay: 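Partners whose loss is lethal together with topoisomerase I blockade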 (primary screen). System: MDA-MB-231 cells, a human breast cancer line. Reagent: single siRNA against human genes, 20 nM siRNA (0.8 pmol per well). Duration: 120 h (drug added 48 h after transfection, read 72 h later). Conditions: camptothecin 20 nM (about EC30) for 72 h; vehicle 0.1% DMSO in parallel plates. Measurement: 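Cell viability by ATP luminescence (CellTiter-Glo) as % of non-targeting siRNA wells, and the log2 ratio of viability without drug over viability with camptothecin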. Scale: log2 vehicle/camptothecin viability: higher = stronger sensitisation to camptothecin; viability with camptothecin and viability without drug: higher = more viable cells. Rule for the call: 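Each gene scored by redundant siRNA activity (RSA) over its individual siRNA ratios; a gene is called active at p < 0.001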.
Shown is one part, drawn at random, of about 26,000 reagents. Of all reagents, 167 (0.63%) got an active call. 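Calls are per gene from RSA p-values that are not deposited; an individual active-marked siRNA can sensitise only weakly.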 Unmarked entries are inactive. Reagents against one gene are numbered here.

target	reagent no.	log2 vehicle/camptothecin viability	viability with camptothecin (% of control)	viability without drug (% of control)
ABL2 (GeneID 27)	1	0.184	71.3	80.9
ABL2 (GeneID 27)	2	-0.0194	70.3	69.3
ABL2 (GeneID 27)	3	0.211	65.1	75.4
ABL2 (GeneID 27)	4	0.0535	49.7	51.6
ITPKC (GeneID 80271)	1	-0.256	29.7	24.9
ITPKC (GeneID 80271)	2	-0.0335	79.1	77.3
ITPKC (GeneID 80271)	3	-0.018	79.3	78.3
ITPKC (GeneID 80271)	4	-0.293	81.3	66.4
SLC25A44 (GeneID 9673)	1	-0.439	58.4	43.1
SLC25A44 (GeneID 9673)	2	-0.229	105	89.6
SLC25A44 (GeneID 9673)	3	-0.112	55.6	51.5
SLC25A44 (GeneID 9673)	4	-0.0841	64.7	61
CPVL (GeneID 54504)	1	-0.0779	95.3	90.3
CPVL (GeneID 54504)	2	-0.321	120	96.3
CPVL (GeneID 54504)	3	-0.092	104	97.2
CPVL (GeneID 54504)	4	-0.113	107	98.8
CD300C (GeneID 10871)	1	-0.713	96.6	59
CD300C (GeneID 10871)	2	-0.203	74.7	64.9
CD300C (GeneID 10871)	3	-0.777	52.5	30.6
CD300C (GeneID 10871)	4	0.0995	109	116
PREPL (GeneID 9581)	1	-0.25	112	94.5
PREPL (GeneID 9581)	2	-0.0512	85.4	82.5
PREPL (GeneID 9581)	3	-0.162	102	90.8
PREPL (GeneID 9581)	4	-0.423	64.6	48.1
OTX1 (GeneID 5013)	1	-0.17	76.3	67.8
OTX1 (GeneID 5013)	2	-0.567	67.1	45.3
OTX1 (GeneID 5013)	3	0.188	73	83.2
OTX1 (GeneID 5013)	4	-0.341	78.2	61.8
AGXT2 (GeneID 64902)	1	0.0864	78.6	83.5
AGXT2 (GeneID 64902)	2	-0.396	59	44.8
AGXT2 (GeneID 64902)	3	-0.228	75.1	64.2
GTF2F1 (GeneID 2962)	1	0.17	57.4	64.6
GTF2F1 (GeneID 2962)	2	0.00624	102	103
GTF2F1 (GeneID 2962)	3	-0.126	76.9	70.4
PDILT (GeneID 204474)	1	0.0819	103	109
PDILT (GeneID 204474)	2	-0.662	87.7	55.4
PDILT (GeneID 204474)	3	-0.263	83.4	69.5
PDILT (GeneID 204474)	4	-0.204	98.8	85.8
SLC26A2 (GeneID 1836)	1	-0.197	64	55.9
SLC26A2 (GeneID 1836)	2	-0.201	106	92.6
SLC26A2 (GeneID 1836)	3	-0.313	107	86.4
SLC26A2 (GeneID 1836)	4	-0.0713	98.3	93.5
KCNS3 (GeneID 3790)	1	0.251	82.7	98.4
KCNS3 (GeneID 3790)	2	-0.274	63.8	52.7
KCNS3 (GeneID 3790)	3	-0.244	99.9	84.4
KCNS3 (GeneID 3790)	4	-0.134	97.1	88.5
HNRNPD (GeneID 3184)	1	-0.278	130	107
HNRNPD (GeneID 3184)	2	0.432	57.2	77.1
HNRNPD (GeneID 3184)	3	-0.157	104	93.5
HNRNPD (GeneID 3184)	4	-0.239	85.5	72.4
DUSP8 (GeneID 1850)	1	0.0758	36.2	38.2
DUSP8 (GeneID 1850)	2	-0.175	116	103
DUSP8 (GeneID 1850)	3	-0.187	83.7	73.6
DUSP8 (GeneID 1850)	4	-0.0538	105	101
MEX3A (GeneID 92312)	1	-0.205	102	88.1
MEX3A (GeneID 92312)	2	-0.42	97.1	72.6
MEX3A (GeneID 92312)	3	-0.415	55.3	41.5
MEX3A (GeneID 92312)	4	-0.0863	96.4	90.8
GEMIN4 (GeneID 50628)	1	0.241	42.1	49.8
GEMIN4 (GeneID 50628)	2	0.256	48.6	58
GEMIN4 (GeneID 50628)	3	-0.285	93.9	77.1
GEMIN4 (GeneID 50628)	4	-0.0664	55	52.5
DUSP16 (GeneID 80824)	1	-0.209	87.4	75.7
DUSP16 (GeneID 80824)	2	-0.208	111	96.2
DUSP16 (GeneID 80824)	3	-0.692	104	64.1
DUSP16 (GeneID 80824)	4	-0.000202	75.5	75.5
FOLH1 (GeneID 2346)	1	0.0552	58	60.3
FOLH1 (GeneID 2346)	2	-0.0811	55.7	52.6
FOLH1 (GeneID 2346)	3	-0.095	112	105
FOLH1 (GeneID 2346)	4	-0.114	104	96.4

12 entries from above, sorted by “viability without drug (% of control)”, high to low.
target	reagent no.	log2 vehicle/camptothecin viability	viability with camptothecin (% of control)	viability without drug (% of control)
HNRNPD (GeneID 3184)	1	-0.278	130	107
KCNS3 (GeneID 3790)	1	0.251	82.7	98.4
SLC26A2 (GeneID 1836)	4	-0.0713	98.3	93.5
SLC26A2 (GeneID 1836)	2	-0.201	106	92.6
KCNS3 (GeneID 3790)	4	-0.134	97.1	88.5
SLC26A2 (GeneID 1836)	3	-0.313	107	86.4
PDILT (GeneID 204474)	4	-0.204	98.8	85.8
KCNS3 (GeneID 3790)	3	-0.244	99.9	84.4
HNRNPD (GeneID 3184)	2	0.432	57.2	77.1
PDILT (GeneID 204474)	3	-0.263	83.4	69.5
SLC26A2 (GeneID 1836)	1	-0.197	64	55.9
KCNS3 (GeneID 3790)	2	-0.274	63.8	52.7
